Where “and” joins values, the source holds several entries; their conditions need not be identical. Equal values may be shown once. The whole screen tested about 390,000 compounds, of which about 760 (0.19%) were called active. This list was built around the results that the source calls inconclusive (neither active nor inactive); the mix of calls is not that of the screen. Calls follow the shape of the dose curve; as a rule, active = well fitted inhibition curve with a large enough effect; inconclusive = small, poorly fitted or top-dose-only effect; inactive = flat fitted curve, though single readings scatter. Potencies beside an inconclusive call are fits to weak or partial responses and may not hold up.
Test: qHTS for Inhibitors of Vif-A3F Interactions: qHTS; also: nearly all actives have a fitted effect of over 65% in size; as to activity, negative = active: % of control where 0% means no effect
Conditions: HeLa A3F-eYFP + Vif (tagged APOBEC3F with the HIV-1 protein that degrades it), YFP fluorescence increase; series mostly up to 46.1 µM; activity, negative = active: at the top concentration
How it was run: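 Fluorescence increase (Ex 488/Em 500-530) after overnight compound treatment at 37 deg C flags inhibition of Vif-driven A3F-eYFP loss in stable HeLa A3F-eYFP/Vif cells seeded overnight beforehand.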
Potency is read from the fitted curve at half-maximal effect.

Row | SMILES | Potency | activity, negative = active
1 | O=C(CCN1C(=O)c2cccc3cccc(c23)C1=O)N1CCN(c2ccccc2F)CC1 | inconclusive: 5.62 µM [inhibitor, single point] | –
2 | CCO/C=C1\C(=O)N(CC)c2ccccc21 | inconclusive: 35.5 µM [inhibitor, single point] | –
3 | CC1(C)CC2CC(C)(CN2C(=O)c2cccs2)C1 (stereo not drawn) | inconclusive: 35.5 µM [inhibitor, single point] | –
4 | COc1cc(CO)ccc1OCC(=O)Nc1cccc2ccccc12 | inconclusive: 7.08 µM [inhibitor, partial curve, poor fit] | –
5 | CCOc1cc(/C=N/NC(=O)Cn2nc([N+](=O)[O-])cc2C)cc(Br)c1OCc1ccccc1C | inconclusive: 35.5 µM [inhibitor, partial curve, poor fit] | –
6 | Cc1ccc(-n2[nH]c(C)c(/C=N/N3C(=O)c4cccc5cccc(c45)C3=O)c2=O)cc1 | inconclusive: 35.5 µM [inhibitor, single point] | –
7 | COc1ccc(CCNCC2C(Oc3ccc(Cl)cc3)C(=O)N2c2ccccc2C)cc1OC (stereo not drawn) | – | inactive: 6.23%
8 | COc1cccc(N(CC(=O)NC2CCCCC2)C(=O)CCC(=O)Nc2nc(C)cs2)c1 | inconclusive: 2.82 µM [inhibitor, partial curve, poor fit] | –
9 | O=C(Nc1ccc(Cl)cc1)Nc1ccc(N2CCCC2)c(S(=O)(=O)Nc2ccccc2Cl)c1 | – | inactive: -10.1%
10 | CCCCCCN1C[C@@H](n2cc(-c3ccc(F)cc3)nn2)[C@H](O)C[C@@H]1c1ccccc1 | inconclusive: 11.2 µM [inhibitor, single point] | –
11 | CCOC(=O)CC(=O)CSc1nc(-c2cccnc2)ccc1C#N | – | inactive: -1.7%
12 | CCOc1ccccc1-n1ccn(CC(=O)Nc2ccc(Br)cc2F)c(=O)c1=O | inconclusive: 2.51 µM [inhibitor, single point] | –
13 | COC(=O)c1ccc2nccnc2c1 | inconclusive: 22.4 µM [inhibitor, single point] | –
14 | NS(=O)(=O)c1ccc2c(c1)C1C=CCC1C(C1CC=CCC1)N2 (stereo not drawn) | – | inactive: 2.08%
15 | CCSc1c([N+](=O)[O-])c(=O)n(-c2ccccc2)c2ccccc12 | inconclusive: 7.94 µM [inhibitor, partial curve, poor fit] | –
16 | O=C(CN1C(=O)CSc2ncccc21)Nc1cccc(Cl)c1 | active: 10 µM | –
17 | C/C(=N\NC(=O)c1ccccc1-n1cccc1)c1ccccn1 | inconclusive: 35.5 µM [inhibitor, single point] | –
18 | Cc1noc(C)c1COc1ccccc1C(=O)NCCc1ccc(Cl)cc1 | – | inactive: 5.39%
19 | O=C(NCc1ccco1)/C(=C/c1ccc(C(F)(F)F)cc1)c1nc2ccccc2[nH]1 | inconclusive: 35.5 µM [inhibitor, single point] | –
20 | CC(=O)/C(N=Nc1ccc(C(=O)O)cc1[N+](=O)[O-])=C(\C)O | – | inactive: -0.329%
21 | N/C(CN1CCSCC1)=N\OCc1c(F)cccc1Cl | inconclusive: 35.5 µM [inhibitor, single point] | –
22 | CCOc1ccc(OCC)c(NS(=O)(=O)c2cc(-c3onc(C)c3C)ccc2OC)c1 | – | inactive: -2.75%
23 | CCCCCCNC(=O)O[C@H]1Cn2c(=O)n(CCCCCC)c(=O)n2[C@@H]2CN(S(=O)(=O)c3ccc(C)cc3)C[C@]12O | inconclusive: 25.1 µM [inhibitor, single point] | –

Row | SMILES | Potency | activity, negative = active
24 | O=C(N/N=C/c1c(O)ccc2ccccc12)c1ccc(Br)o1 | inconclusive: 17.8 µM [inhibitor, partial curve, poor fit] | –
25 | Cn1nnc(NC(=S)NC(=O)c2ccc(-c3ccc(Br)cc3)o2)n1 | inconclusive: 2.51 µM [inhibitor, full curve, poor fit] | –
26 | COc1ccccc1NC(=O)c1sc2nc(C)c(C(=O)Nc3ccc(C)cc3C)c(-c3ccc(C)o3)c2c1N | – | inactive: 1.31%
27 | CC(C)OC(=O)CSc1nnc(-c2cnccn2)n1C | – | inactive: 1.66%
28 | Cn1cc(/C=C2\SC(=O)N(c3ccccc3)C2=O)c2ccccc21 | active: 7.94 µM | –
29 | Cc1cccc(CN2CCN(C(=O)c3cccc4ccccc34)CC2)c1 | – | inactive: 1.33%
30 | Cc1cccc2cc3c(N)c(C(=O)N4CCCc5ccccc54)sc3nc12 | active: 11.2 µM | –
31 | CCS(=O)(=O)c1ccc2oc(SCC(=O)NCCc3ccc(F)cc3)nc2c1 | inconclusive: 3.16 µM [inhibitor, partial curve, poor fit] | –
32 | COC(=O)C1=C(C)Nc2[nH]c(=S)[nH]c(=O)c2C1c1ccc(OC)cc1 (stereo not drawn) | – | inactive: -8.4%
33 | CCc1ccccc1N(C(=O)CNC(=O)c1ccco1)C(C(=O)NC1CCCC1)c1cccnc1 (stereo not drawn) | inconclusive: 35.5 µM [inhibitor, single point] | –
34 | Cn1c(=O)[nH]c2c(c(C(=O)O)nn2C)c1=O | inconclusive: 6.31 µM [inhibitor, single point] | –
35 | COc1ccccc1/C=C1\SC(=S)N(CCC(=O)NC2=NCCS2)C1=O | inconclusive: 35.5 µM [inhibitor, single point] | –
36 | O=C(NCC(=O)N(CCN1CCOCC1)C(C(=O)NC1CCCC1)c1cccnc1)c1cccs1 (stereo not drawn) | – | inactive: -1.85%
37 | Cc1cc2nc(SCCOC(=O)Nc3cccc(Cl)c3)nc(C)c2cc1C | active: 25.1 µM | –
38 | Cc1ccc(CSc2nc3c(c(=O)[nH]2)C(c2cccc(F)c2F)CC(=O)N3)cc1 (stereo not drawn) | inconclusive: 5.62 µM [inhibitor, single point] | –
39 | NC(=S)NN=Cc1nccc2c(C(F)(F)C(F)(F)C(F)(F)F)cccc12 | inconclusive: 2.24 µM [inhibitor, partial curve, poor fit] | –
40 | CCOC(=O)c1ccc(NC(=O)c2nc[nH]c2C(=O)N[C@@H](CC(C)C)C(=O)OCc2ccccc2)cc1 | inconclusive: 35.5 µM [inhibitor, single point] | –
41 | CCN(CC)CCCn1c2c(c(SCC(=O)Nc3nccs3)nc1=O)CCC2 | inconclusive: 5.62 µM [inhibitor, single point] | –
42 | CN1CCc2c(sc3c2C(=O)NC(c2ccc(OC(=O)c4ccc(Cl)cc4)cc2)N3)C1 (stereo not drawn) | inconclusive: 25.1 µM [inhibitor, single point] | –
43 | Cc1cc(C)n(CC(O)COc2cccc(OCC(O)Cn3nc(C)cc3C)c2)n1 (stereo not drawn) | – | inactive: 12.2%
44 | N#C/C(=C\c1ccc(-c2ccc(C(=O)O)cc2)o1)c1nc2ccccc2[nH]1 | inconclusive: 2.82 µM [inhibitor, full curve, poor fit] and inconclusive: 1.78 µM [inhibitor, full curve, poor fit] | –
45 | CCC1=C(OC(=O)N(CC)CC)N2C(=O)OC(=NCCc3c[nH]c4ccccc34)[C@]2(Cc2ccccc2)[C@H]2C1=CC[C@H]1C(=O)N(C)C(=O)[C@H]12 | – | inactive: -0.327%
46 | C(=C\c1ccccn1)/c1ccccn1 | – | inactive: -3.61%

Row | SMILES | Potency | activity, negative = active
47 | C=CCNC(=S)N/N=C/c1cn(C)c2ccccc12 | inconclusive: 4.47 µM [inhibitor, single point] | –
48 | O=C(CSc1nnc2c(n1)[nH]c1ccccc12)Nc1cccc(S(=O)(=O)N2CCOCC2)c1 | inconclusive: 35.5 µM [inhibitor, single point] | –
49 | COc1ccc(-c2nn(-c3ccccc3)cc2/C=C/C(=O)OCC(=O)Nc2cccc(C#N)c2)cc1 | inconclusive: 22.4 µM [inhibitor, single point] | –
50 | COc1ccc(-c2nc3ccccc3c(=O)n2CCCn2ccnc2)cc1 | – | inactive: -4.35%
51 | COc1ccc(C2=Nn3c(nnc3-c3ccc(OC)cc3)SC2)cc1 | – | inactive: -0.245%
52 | COc1cc(C(=O)NC2CCN(C)CC2)ccc1Nc1ncc2c(n1)N(Cc1ccccc1)CCC(=O)N2C | inconclusive: 12.6 µM [inhibitor, partial curve, poor fit] | –
53 | COC(=O)C1CCN(C(=O)/C(C)=C\c2ccccc2)CC1 | inconclusive: 3.16 µM [inhibitor, partial curve, poor fit] | –
54 | COc1cc(/C=N/N2C(=O)C3C4c5ccccc5C(c5ccccc54)C3C2=O)ccc1O (stereo not drawn) | inconclusive: 5.62 µM [inhibitor, single point] | –
55 | Cc1cc(C)c(S(=O)(=O)Oc2ccccc2[N+](=O)[O-])c(C)c1 | – | inactive: 1.86%
56 | Cn1c(=O)n(C)c2cc(NC(=O)c3ccc(F)cc3)c(Br)cc21 | inconclusive: 35.5 µM [inhibitor, single point] | –
57 | COc1ccc(NC(=S)NC23CN4CN(CN(C4)C2)C3)cc1 | – | inactive: 0.525%
58 | CCc1c(C)nc2nc(-c3ccccc3)nn2c1NCc1ccc(C)cc1 | – | inactive: 4.01%
59 | CC1(C)SC(=S)N(NC(=O)Nc2ccccc2)C1N(O)C(=O)Nc1cccc2ccccc12 (stereo not drawn) | inconclusive: 15.8 µM [inhibitor, single point] | –
60 | C/C(=N\NC(=O)c1nn(C)cc1Br)c1ccncc1 | inconclusive: 17.8 µM [inhibitor, single point] | –
61 | COc1ccc(C#Cc2ccc3c(c2)O[C@@H](CN(C)C(=O)Nc2cccc(OC)c2)[C@H](C)CN([C@@H](C)CO)S3(=O)=O)cc1 | inconclusive: 35.5 µM [inhibitor, single point] | –
62 | Cc1cc(C)n(CC(=O)Nc2ccccc2)n1 | – | inactive: 1.23%
63 | CC(=O)Nc1ccc(N2C(=O)c3cccc4c(O)ccc(c34)C2=O)cc1 | inconclusive: 3.98 µM [inhibitor, single point] | –
64 | Cc1oc(-c2ccccc2Cl)nc1CSc1nncn2c1cc1occc12 | – | inactive: -1.39%
65 | Cc1ccc(SC2=C(Sc3ccc(C)cc3)C(=O)c3ccccc3C2=O)cc1 | active: 8.91 µM | –
66 | CC(=O)N1NC(=Nc2ccccc2)SC1(C)C | – | inactive: 0.219%
67 | COc1ccccc1-c1nnc2sc(COc3ccccc3)nn12 | – | inactive: -6.42%
68 | CCO/N=C(/c1nonc1N)N1CCN(c2ccc([N+](=O)[O-])cc2)CC1 | inconclusive: 22.4 µM [inhibitor, single point] | –

Some values from above.
Under activity, negative = active, Cc1cc(C)c(S(=O)(=O)Oc2ccccc2[N+](=O)[O-])c(C)c1 shows inactive: 1.86%
Under Potency, Cc1ccc(SC2=C(Sc3ccc(C)cc3)C(=O)c3ccccc3C2=O)cc1 shows active: 8.91 µM
Under Potency, COc1ccc(C#Cc2ccc3c(c2)O[C@@H](CN(C)C(=O)Nc2cccc(OC)c2)[C@H](C)CN([C@@H](C)CO)S3(=O)=O)cc1 shows inconclusive: 35.5 µM [inhibitor, single point]
Under activity, negative = active, COc1ccccc1-c1nnc2sc(COc3ccccc3)nn12 shows inactive: -6.42%

Reference: PubChem BioAssay AID602313 (National Center for Advancing Translational Sciences (NCATS), 2012)
